We go through one molecule from doi:10.1101/418368.

The experiment has as its target T1, Mcm3 (Xenopus laevis (endogenous in egg extract)) (UniProt P49739).
T1 sequence: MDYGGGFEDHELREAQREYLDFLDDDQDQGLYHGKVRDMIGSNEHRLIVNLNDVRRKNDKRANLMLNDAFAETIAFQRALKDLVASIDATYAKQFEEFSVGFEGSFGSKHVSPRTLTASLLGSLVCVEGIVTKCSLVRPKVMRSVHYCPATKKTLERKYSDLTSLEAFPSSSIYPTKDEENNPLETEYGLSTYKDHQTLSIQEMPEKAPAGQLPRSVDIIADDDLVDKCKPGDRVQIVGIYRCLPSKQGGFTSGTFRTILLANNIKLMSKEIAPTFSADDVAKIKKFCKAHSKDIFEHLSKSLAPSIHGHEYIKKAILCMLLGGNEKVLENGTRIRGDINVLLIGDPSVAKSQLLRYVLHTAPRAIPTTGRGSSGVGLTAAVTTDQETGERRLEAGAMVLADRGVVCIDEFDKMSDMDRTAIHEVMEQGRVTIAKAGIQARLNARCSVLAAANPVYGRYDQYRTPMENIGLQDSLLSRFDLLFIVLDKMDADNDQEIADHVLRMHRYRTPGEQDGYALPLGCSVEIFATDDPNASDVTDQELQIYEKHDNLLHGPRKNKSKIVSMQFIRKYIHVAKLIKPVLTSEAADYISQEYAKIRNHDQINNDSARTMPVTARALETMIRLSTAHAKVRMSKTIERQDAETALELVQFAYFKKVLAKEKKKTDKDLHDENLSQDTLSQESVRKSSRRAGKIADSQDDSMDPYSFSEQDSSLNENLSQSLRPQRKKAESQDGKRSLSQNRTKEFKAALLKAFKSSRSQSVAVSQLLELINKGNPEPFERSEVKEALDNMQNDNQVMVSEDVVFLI
Kind of experiment: co-IP.

No constants are given. Whether binding was seen depends on the method and setting. In cells and extracts the contact can be indirect. Some binding calls cover weakened binding; strength is not graded here.

B1: TRAIP ubiquitin ligase (enzyme, UniProt Q6NRV0 1-464)
chain: MPIRAYCTICSDFFDNARDVAAITCGHTFHQECLLQWFHSAPHRTCPQCRIQVSSRQIINKLFFDIGGEEETVLDAESLKNEVDRIKASLLVKEKEKRECQGLVDSLREMLDVRNVTIQSQQKELGDMEMLCSTLKKQIKFLDKQQSETKAAKDEARKLRNKLKTMESIEVLLQSQRSEVEEMIRDMGSGQAAVEQLAIYCVSLKKEYENLKEVRKSSAEMTEKLRKELFSSNHKAQKAELELTKVREELSASQKELHSADKEIMSLKKKVEFLQKTLTTPTASNEAISRLIFESPAPIGLERPKLRPPMMGNDINLDVTFDIDTPEHNTQKSVVAPFKKMKFDNKEHPLSSPTKNPLQESKGLMSWAGGRTGADEDDDLTLPSFIKNSLLHKKPVGSLLGLRQNTGAVRTGFDGLGGRTKFIQPSNLTEIRPLHQKMKRKKVSRPTACTSSLANQPRLEDFLK
For the molecule B1, the binding entry is listed as “binds”.
